Data reported in article PMC9260213.
Results are given in words; binding and its absence hold for the method and conditions named. Some entries that bind do so weakly or less than the wild type.

Experiments:
[1] = target: T1, human Elp5 (subunit of hElp456) (Homo sapiens) (UniProt Q8TE02); experiment: cryo-EM structure; purified Elp456 subcomplexes, single particle analysis, C2 symmetry; homology models (template yeast Elp456) fitted into the maps; both purified
T1 sequence: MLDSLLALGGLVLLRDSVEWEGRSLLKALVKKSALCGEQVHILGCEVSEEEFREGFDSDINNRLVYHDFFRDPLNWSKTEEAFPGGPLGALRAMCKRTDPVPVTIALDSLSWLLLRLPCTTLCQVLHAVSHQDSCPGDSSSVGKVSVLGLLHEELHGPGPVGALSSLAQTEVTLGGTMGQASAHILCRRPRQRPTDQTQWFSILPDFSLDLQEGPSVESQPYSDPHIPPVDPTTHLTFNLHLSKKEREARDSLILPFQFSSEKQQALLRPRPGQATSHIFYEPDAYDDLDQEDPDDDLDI

[2] = target: T2, human Elp6 (subunit of hElp456) (Homo sapiens) (UniProt Q0PNE2); experiment: as above
T2 sequence: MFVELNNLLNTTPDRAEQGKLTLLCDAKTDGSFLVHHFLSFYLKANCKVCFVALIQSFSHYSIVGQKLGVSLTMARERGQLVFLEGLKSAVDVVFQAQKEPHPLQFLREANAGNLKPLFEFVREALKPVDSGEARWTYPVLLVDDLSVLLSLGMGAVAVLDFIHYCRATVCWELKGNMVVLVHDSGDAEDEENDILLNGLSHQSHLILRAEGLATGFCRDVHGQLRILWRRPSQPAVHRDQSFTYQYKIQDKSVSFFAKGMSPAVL

[3] = target: T2, human Elp6 (subunit of hElp456) (Homo sapiens); experiment: SEC; three subunits co-expressed and purified as one complex (human, murine: Hi-5 cells, IgG agarose via Protein A on Elp6, TEV cleavage); gel filtration on Superose 6 Increase 10/300 GL by the legend (S200 Increase 10/300 GL by the methods), 20 mM HEPES pH 7.5, 100 mM NaCl, 2 mM MgCl2, 5 mM DTT; eluted at ~220 kDa; production of the yeast complex not told; both purified
[4] = target: T3, murine Elp6 L118W (Mus musculus) (UniProt Q8BK75); experiment: co-purification; mElp456 variants co-expressed in Hi-5 cells, captured from lysate on IgG agarose via Protein A on Elp6, TEV cleavage, gel filtration
T3 sequence: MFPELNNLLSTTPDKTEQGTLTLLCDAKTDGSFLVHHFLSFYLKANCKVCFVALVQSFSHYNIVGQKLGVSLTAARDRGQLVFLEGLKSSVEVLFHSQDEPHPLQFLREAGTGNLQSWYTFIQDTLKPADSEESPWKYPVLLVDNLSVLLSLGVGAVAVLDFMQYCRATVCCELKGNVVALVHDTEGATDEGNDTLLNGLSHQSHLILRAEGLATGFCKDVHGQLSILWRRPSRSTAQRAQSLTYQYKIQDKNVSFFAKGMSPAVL

[5] = target: T4, murine Elp6 L126Q (Mus musculus) (UniProt Q8BK75); experiment: as above
T4 sequence: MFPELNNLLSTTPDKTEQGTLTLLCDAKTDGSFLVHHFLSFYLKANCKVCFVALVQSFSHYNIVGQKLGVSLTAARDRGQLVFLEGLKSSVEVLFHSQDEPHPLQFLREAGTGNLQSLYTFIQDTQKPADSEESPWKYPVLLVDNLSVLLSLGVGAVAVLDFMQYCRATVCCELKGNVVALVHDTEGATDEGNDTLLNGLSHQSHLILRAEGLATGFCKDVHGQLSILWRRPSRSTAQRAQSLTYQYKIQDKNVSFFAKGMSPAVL

[6] = target: T5, murine Elp5 (subunit of mElp456) (Mus musculus) (UniProt Q99L85); experiment: cryo-EM structure; purified Elp456 subcomplexes, single particle analysis, C2 symmetry; homology models (template yeast Elp456) fitted into the maps; both purified
T5 sequence: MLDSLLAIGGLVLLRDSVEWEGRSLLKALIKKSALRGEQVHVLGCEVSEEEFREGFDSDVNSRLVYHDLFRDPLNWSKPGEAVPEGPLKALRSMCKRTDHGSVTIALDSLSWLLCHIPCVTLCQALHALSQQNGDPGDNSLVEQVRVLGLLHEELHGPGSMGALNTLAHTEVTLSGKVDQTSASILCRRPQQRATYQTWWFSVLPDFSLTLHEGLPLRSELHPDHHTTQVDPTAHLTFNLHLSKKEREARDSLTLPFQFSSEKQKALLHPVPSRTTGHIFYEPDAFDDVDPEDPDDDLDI

[7] = target: T6, murine Elp6 (subunit of mElp456) (Mus musculus) (UniProt Q8BK75); experiment: as above
T6 sequence: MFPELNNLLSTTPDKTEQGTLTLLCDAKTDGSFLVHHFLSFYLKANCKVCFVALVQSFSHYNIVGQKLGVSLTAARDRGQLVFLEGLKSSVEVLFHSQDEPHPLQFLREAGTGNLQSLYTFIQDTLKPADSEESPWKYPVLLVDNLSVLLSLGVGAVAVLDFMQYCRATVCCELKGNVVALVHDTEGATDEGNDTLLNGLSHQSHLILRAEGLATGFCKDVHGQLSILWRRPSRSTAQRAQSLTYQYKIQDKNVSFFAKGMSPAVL

[8] = target: T6, murine Elp6 (subunit of mElp456) (Mus musculus); experiment: SEC; three subunits co-expressed and purified as one complex (human, murine: Hi-5 cells, IgG agarose via Protein A on Elp6, TEV cleavage); gel filtration on Superose 6 Increase 10/300 GL by the legend (S200 Increase 10/300 GL by the methods), 20 mM HEPES pH 7.5, 100 mM NaCl, 2 mM MgCl2, 5 mM DTT; eluted at ~220 kDa; production of the yeast complex not told; both purified
[9] = target: T7, yeast Elp6 (subunit of yElp456) (yeast) (UniProt Q04868); experiment: as above
T7 sequence: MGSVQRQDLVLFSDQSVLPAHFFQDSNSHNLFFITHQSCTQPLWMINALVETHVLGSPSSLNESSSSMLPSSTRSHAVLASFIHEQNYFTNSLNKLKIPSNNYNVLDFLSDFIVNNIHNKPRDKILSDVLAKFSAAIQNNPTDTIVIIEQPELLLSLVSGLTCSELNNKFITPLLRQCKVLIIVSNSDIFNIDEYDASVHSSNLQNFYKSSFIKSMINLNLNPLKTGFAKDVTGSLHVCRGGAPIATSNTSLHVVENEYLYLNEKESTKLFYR

Measured: binding

B1: human Elp4 (subunit of hElp456) (protein, UniProt Q96EB1 1-424)
chain: MAAVATCGSVAASTGSAVATASKSNVTSFQRRGPRASVTNDSGPRLVSIAGTRPSVRNGQLLVSTGLPALDQLLGGGLAVGTVLLIEEDKYNIYSPLLFKYFLAEGIVNGHTLLVASAKEDPANILQELPAPLLDDKCKKEFDEDVYNHKTPESNIKMKIAWRYQLLPKMEIGPVSSSRFGHYYDASKRMPQELIEASNWHGFFLPEKISSTLKVEPCSLTPGYTKLLQFIQNIIYEEGFDGSNPQKKQRNILRIGIQNLGSPLWGDDICCAENGGNSHSLTKFLYVLRGLLRTSLSACIITMPTHLIQNKAIIARVTTLSDVVVGLESFIGSERETNPLYKDYHGLIHIRQIPRLNNLICDESDVKDLAFKLKRKLFTIERLHLPPDLSDTVSRSSKMDLAESAKRLGPGCGMMAGGKKHLDF
binds: [1] | [2] | [3]

B2: murine Elp4 (subunit of mElp456) (protein, UniProt Q9ER73 1-422)
chain: MAAADTCGAGTLSSRSVASEAGQGGTSSFQRKGKASGGPGGGPRLLSIAGTRPSVRNGQLLVSTGLPALDQLLGGGLAVGTLLLIEEDKYNIYSPLLFKYFMAEGIINGHTLLVASAKENPAKILQELPAPLLDDNSKKELEDVHSAKTPEPNVNMKIAWRYQLQPKMEVGPVSSSRFGHYYDLSKRIPWELLQSSKWHGFFLPEHISPDLKGESCFLSCGYMRLLEFIQKSVYAEGFDGANPQKKQKNILRIGIQNLGSPLWGDDICCKENCDNNHRLTKFLYILRGLLRSSLSACIITMPAHLVQNKSITTRVRNLSDTVVGLESFIGSERETNPLYKDYHGLIHIRKIPRLNNLTCDESDVKDLAFKLKRKLFTIERLHLPPDLSDTVGRSSKQDLAASTARLGAGCSSMAEGKKHLDF
binds: [4] | [5] | [6] | [7] | [8]

B3: yeast Elp5 (subunit of yElp456) (protein, UniProt P38874 1-270)
chain: MASSSHNPVILLKRILSLTESSPFILCLDSIAQTSYKLIQEFVHQSKSKGNEYPIVYISFETVNKPSYCTQFIDATQMDFVHLVKQIISYLPAATATQAKKHMVIIDSLNYISTEYITRFLSEIASPHCTMVATYHKDIKDENRTVIPDWNNNYPDKLTLLQFMATTIVDIDVVLTGTLDTEEVSELLNEFRIPRGLNNDIFQLRLVNKRKSGRSLEYDFIVNSNTHEYELLSTTKQEEESSSNGLETPEMLQGLTTFNLGTSNKQKLAK
binds: [9]
